Experimental findings from patent publication US20120258099A1 are described below.

This assay deals with Trio DH2-PH2 (in the pPC97 vector), two-hybrid bait (UniProt O75962). The assay can be described thus: yeast two-hybrid, 80-120 mM 3-AT.

These are yes or no findings as the source states them, for the method shown. Some entries that bind do so weakly or less than the wild type.

B1: TRIP-like peptide E^32G/S^36T, two-hybrid clone in pPC86 (peptide, not shown: large carriers)
chain: AREGADGAICGYNLATLVMLGPSERVFCPLCGPCSTDIYELM
Turning to B1, the binding entry is “binds”.

B2: TRIP-like peptide T^16A/V^18G/E^32G/I^38N, two-hybrid clone in pPC86 (peptide, not shown: large carriers)
chain: AREGADGAICGYNLAALGMLGPSERVFCPLCGPCSSDNYELM
On to B2, for which the binding entry is “binds”.

B3: TRIP-like peptide T^16M, two-hybrid clone in pPC86 (peptide, not shown: large carriers)
chain: AREGADGAICGYNLAMLVMLGPSERVFCPLCEPCSSDIYELM
As to B3, the binding result is “binds”.

B4: TRIP-like peptide A^1T/V^18D/F^27L, two-hybrid clone in pPC86 (peptide, not shown: large carriers)
chain: TREGADGAICGYNLATLDMLGPSERVLCPLCEPCSSDIYELM
Turning to B4, the binding entry is “binds”.

B5: TRIP-like peptide E^32G, two-hybrid clone in pPC86 (peptide, not shown: large carriers)
chain: AREGADGAICGYNLATLVMLGPSERVFCPLCGPCSSDIYELM
For the molecule B5, the binding result is given as “binds”.

B6: TRIP-like peptide T^16M/S^32G, two-hybrid clone in pPC86 (peptide, not shown: large carriers)
chain: AREGADGAICGYNLAMLVMLGPGERVFCPLCEPCSSDIYELM
As to B6, the binding entry is listed as “binds”.

B7: TRIP-like peptide T^16M/L^17S, two-hybrid clone in pPC86 (peptide, not shown: large carriers)
chain: AREGADGAICGYNLAMSVMLGPSERVFCPLCEPCSSDIYELM
For the molecule B7, the binding result is recorded as “binds”.

B8: TRIP-like peptide V^18D/I^38S, two-hybrid clone in pPC86 (peptide, not shown: large carriers)
chain: AREGADGAICGYNLATLDMLGPSERVFCPLCEPCSSDSYELM
B8: the binding entry was “binds”.

B9: TRIP-like peptide T^16A/L^17S/C^34R/S^36P, two-hybrid clone in pPC86 (peptide, not shown: large carriers)
chain: AREGADGAICGYNLAASVMLGPSERVFCPLCEPRSPDIYELM
As for B9, the binding entry was “binds”.

B10: TRIP-like peptide N^13D/T^16M/C^34R, two-hybrid clone in pPC86 (peptide, not shown: large carriers)
chain: AREGADGAICGYDLAMLVMLGPSERVFCPLCEPRSSDIYELM
Take B10: the binding result was “binds”.

B11: TRIP-like peptide V^18A/E^24A/E^32G, two-hybrid clone in pPC86 (peptide, not shown: large carriers)
chain: AREGADGAICGYNLATLAMLGPSARVFCPLCGPCSSDIYELM
B11: the binding result is “binds”.
